{"source": "the supplement of paper PMC8326762", "about": "“A Small Molecule Inhibitor of Pex3–Pex19 Interaction Disrupts Glycosome Biogenesis and Causes Lethality in Trypanosoma brucei” (Frontiers in Cell and Developmental Biology, 2021)", "key": {"[1]": {"system": "Saccharomyces cerevisiae HF7c pdr5Δ", "assay": "general growth inhibition of yeast HF7c pdr5Δ in -Leu -Trp medium, relative to DMSO; higher = stronger general growth inhibition", "details": "100 µM; 24 h"}, "[2]": {"system": "human PEX3-PEX19 interaction (yeast two-hybrid)", "assay": "growth inhibition of yeast two-hybrid strain reporting HsPex3-HsPex19 interaction, relative to DMSO; higher = stronger inhibition of human Pex3-Pex19 interaction / growth", "details": "100 µM; 24 h; 3-aminotriazole 10 mM"}, "[3]": {"system": "T. brucei Pex3-Pex19 interaction (yeast two-hybrid)", "assay": "growth inhibition of yeast two-hybrid strain reporting TbPex3-TbPex19 interaction, relative to DMSO; higher = stronger inhibition of T. brucei Pex3-Pex19 interaction / growth", "details": "100 µM; 24 h"}}, "note": "Structures can show the parent of a compound that is named as a salt. The list shows a part of the results. The data scatter; read single values as rough.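 Yeast growth was measured as optical density at 600 nm. Two-hybrid strains grew without histidine, so growth depended on Pex3–Pex19 binding. A compound was trypanosome-selective if it reduced growth of the trypanosome-pair strain by over 65% and of the human-pair strain by under 65%.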"}
{"smiles": "CCN(CC)CCNC(=O)c1cc(S(C)(=O)=O)ccc1OC", "note": "[Tiapride hydrochloride]", "values": [{"measurement": "general growth inhibition", "setting": "[1]", "value": 48.4, "unit": "%"}, {"measurement": "growth inhibition", "setting": "[2]", "value": 53.5, "unit": "%"}, {"measurement": "growth inhibition", "setting": "[3]", "value": 55.4, "unit": "%"}]}
{"smiles": "N[C@@H](C(=O)N[C@@H]1C(=O)N2C(C(=O)O)=C(Cl)CS[C@H]12)c1ccccc1", "note": "[Cefaclor]", "values": [{"measurement": "general growth inhibition", "setting": "[1]", "value": 46.4, "unit": "%"}, {"measurement": "growth inhibition", "setting": "[2]", "value": 51.7, "unit": "%"}, {"measurement": "growth inhibition", "setting": "[3]", "value": 61.5, "unit": "%"}]}
{"smiles": "Cc1ccc(O)c(N=Nc2ccccc2)n1", "values": [{"measurement": "general growth inhibition", "setting": "[1]", "value": 47.1, "unit": "%"}, {"measurement": "growth inhibition", "setting": "[2]", "value": 42.2, "unit": "%"}, {"measurement": "growth inhibition", "setting": "[3]", "value": 41.7, "unit": "%"}]}
{"smiles": "CCN(CC)CCNC(=O)c1ccc(NS(C)(=O)=O)cc1", "note": "[Sematilide monohydrochloride monohydrate]", "values": [{"measurement": "general growth inhibition", "setting": "[1]", "value": 36.6, "unit": "%"}, {"measurement": "growth inhibition", "setting": "[2]", "value": 37.6, "unit": "%"}, {"measurement": "growth inhibition", "setting": "[3]", "value": 59, "unit": "%"}]}
{"smiles": "COC1(C2=NCCN2)COc2ccccc2O1", "note": "(stereo unspecified)", "values": [{"measurement": "general growth inhibition", "setting": "[1]", "value": 50.4, "unit": "%"}, {"measurement": "growth inhibition", "setting": "[2]", "value": 19.8, "unit": "%"}, {"measurement": "growth inhibition", "setting": "[3]", "value": 60.8, "unit": "%"}]}
{"smiles": "CCN(CC)CCn1c(=O)c(Cc2ccc(OC)cc2)nc2ccccc21", "note": "[Caroverine hydrochloride]", "values": [{"measurement": "general growth inhibition", "setting": "[1]", "value": 51.5, "unit": "%"}, {"measurement": "growth inhibition", "setting": "[2]", "value": 45.6, "unit": "%"}, {"measurement": "growth inhibition", "setting": "[3]", "value": 59.3, "unit": "%"}]}
{"smiles": "O=C1NCCc2[nH]c(-c3ccncc3)cc21", "values": [{"measurement": "general growth inhibition", "setting": "[1]", "value": 46.9, "unit": "%"}, {"measurement": "growth inhibition", "setting": "[2]", "value": 53.4, "unit": "%"}, {"measurement": "growth inhibition", "setting": "[3]", "value": 59.1, "unit": "%"}]}
{"smiles": "CC1=C(/C=C/C(C)=C/C=C/C(C)=C\\C(=O)O)C(C)(C)CCC1", "note": "[13-cis-retinoic acid]", "values": [{"measurement": "general growth inhibition", "setting": "[1]", "value": 43.7, "unit": "%"}, {"measurement": "growth inhibition", "setting": "[2]", "value": 31.5, "unit": "%"}, {"measurement": "growth inhibition", "setting": "[3]", "value": 45.8, "unit": "%"}]}
{"smiles": "O=c1[nH]c2cc(C(F)(F)F)ccc2n1-c1cc(C(F)(F)F)ccc1O", "values": [{"measurement": "general growth inhibition", "setting": "[1]", "value": 63.5, "unit": "%"}, {"measurement": "growth inhibition", "setting": "[2]", "value": 49.4, "unit": "%"}, {"measurement": "growth inhibition", "setting": "[3]", "value": 48.7, "unit": "%"}]}
{"smiles": "CCCCN(CC)c1nc(C)nc2c1c(C)cn2-c1c(C)cc(C)cc1C", "values": [{"measurement": "general growth inhibition", "setting": "[1]", "value": 44.8, "unit": "%"}, {"measurement": "growth inhibition", "setting": "[2]", "value": 22.4, "unit": "%"}, {"measurement": "growth inhibition", "setting": "[3]", "value": 21.9, "unit": "%"}]}
{"smiles": "CCc1ccc2c(-c3cccc(Cl)c3)nc(=O)n(CC)c2n1", "values": [{"measurement": "general growth inhibition", "setting": "[1]", "value": 64.1, "unit": "%"}, {"measurement": "growth inhibition", "setting": "[2]", "value": 49.1, "unit": "%"}, {"measurement": "growth inhibition", "setting": "[3]", "value": 59, "unit": "%"}]}
{"smiles": "Cc1cccc(-c2[nH]ncc2-c2ccc3ncccc3n2)n1", "values": [{"measurement": "general growth inhibition", "setting": "[1]", "value": 25.6, "unit": "%"}, {"measurement": "growth inhibition", "setting": "[2]", "value": 25.9, "unit": "%"}, {"measurement": "growth inhibition", "setting": "[3]", "value": 55.5, "unit": "%"}]}
{"smiles": "CC(C)NCC(O)COc1cccc2[nH]ccc12", "note": "(stereo unspecified) [Pindolol]", "values": [{"measurement": "general growth inhibition", "setting": "[1]", "value": 10.9, "unit": "%"}, {"measurement": "growth inhibition", "setting": "[2]", "value": 5.08, "unit": "%"}, {"measurement": "growth inhibition", "setting": "[3]", "value": 36, "unit": "%"}]}
{"smiles": "OC[C@H]1O[C@@H](c2nc3cc(Cl)c(Cl)cc3[nH]2)[C@H](O)[C@@H]1O", "note": "[D-ribofuranosylbenzimidazole]", "values": [{"measurement": "general growth inhibition", "setting": "[1]", "value": 36.7, "unit": "%"}, {"measurement": "growth inhibition", "setting": "[2]", "value": 39.8, "unit": "%"}, {"measurement": "growth inhibition", "setting": "[3]", "value": 62.1, "unit": "%"}]}
{"smiles": "COC(=O)C1=C(C)NC(C)=C(C(=O)OC)C1c1cccc(NC(=O)NCCCN2CCC(c3cccc(OC)c3)CC2)c1", "values": [{"measurement": "general growth inhibition", "setting": "[1]", "value": 39.7, "unit": "%"}, {"measurement": "growth inhibition", "setting": "[2]", "value": 31.1, "unit": "%"}, {"measurement": "growth inhibition", "setting": "[3]", "value": 60.2, "unit": "%"}]}
{"smiles": "O=CN(O)CCCP(=O)(O)O", "note": "[Fosmidomycin sodium salt hydrate]", "values": [{"measurement": "general growth inhibition", "setting": "[1]", "value": 54.1, "unit": "%"}, {"measurement": "growth inhibition", "setting": "[2]", "value": 38.9, "unit": "%"}, {"measurement": "growth inhibition", "setting": "[3]", "value": 56.9, "unit": "%"}]}
{"smiles": "N=C(NC(=O)c1nc(Cl)c(N)nc1N)Nc1ccccc1", "note": "[Phenamil methanesulfonate]", "values": [{"measurement": "general growth inhibition", "setting": "[1]", "value": 51.8, "unit": "%"}, {"measurement": "growth inhibition", "setting": "[2]", "value": 37.7, "unit": "%"}, {"measurement": "growth inhibition", "setting": "[3]", "value": 70, "unit": "%"}]}
